# Library screen at single concentrations

Amino acid sequences for entries named in this document (tags omitted). Residues count along the entry.
UniProt Q4DA54, 1-478: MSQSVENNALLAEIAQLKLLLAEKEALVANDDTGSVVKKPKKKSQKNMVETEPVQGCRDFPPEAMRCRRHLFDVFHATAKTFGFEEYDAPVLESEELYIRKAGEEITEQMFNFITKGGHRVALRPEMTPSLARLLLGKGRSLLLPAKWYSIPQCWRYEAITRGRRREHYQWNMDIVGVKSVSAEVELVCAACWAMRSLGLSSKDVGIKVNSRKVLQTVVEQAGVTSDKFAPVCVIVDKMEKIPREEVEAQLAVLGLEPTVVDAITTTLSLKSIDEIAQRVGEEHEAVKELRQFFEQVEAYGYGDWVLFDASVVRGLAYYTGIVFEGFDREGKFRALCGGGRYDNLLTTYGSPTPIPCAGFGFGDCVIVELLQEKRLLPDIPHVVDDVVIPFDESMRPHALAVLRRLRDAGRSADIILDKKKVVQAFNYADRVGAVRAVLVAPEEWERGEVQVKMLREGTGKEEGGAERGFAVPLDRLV
UniProt A4I591, 1-473: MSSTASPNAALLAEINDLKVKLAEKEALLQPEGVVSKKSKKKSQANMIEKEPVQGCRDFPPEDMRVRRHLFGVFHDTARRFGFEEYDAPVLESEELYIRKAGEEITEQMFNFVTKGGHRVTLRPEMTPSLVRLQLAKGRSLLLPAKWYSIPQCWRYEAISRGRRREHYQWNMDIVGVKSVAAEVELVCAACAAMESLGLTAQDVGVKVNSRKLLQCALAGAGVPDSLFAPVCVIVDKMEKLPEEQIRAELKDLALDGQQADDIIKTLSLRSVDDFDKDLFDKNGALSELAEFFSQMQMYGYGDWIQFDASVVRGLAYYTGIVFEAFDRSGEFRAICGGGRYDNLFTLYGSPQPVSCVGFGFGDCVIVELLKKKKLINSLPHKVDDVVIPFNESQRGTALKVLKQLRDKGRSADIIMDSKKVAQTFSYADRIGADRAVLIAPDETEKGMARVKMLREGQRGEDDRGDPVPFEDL

Data taken from ChEMBL document CHEMBL3988442, “University of Dundee, Small-Polar-MMV Screening Library” (2021).

Values are the deposited “Percent Effect”, in %. The record does not define 0% and 100%; most values in the screen are far below 50% and negative numbers occur (in some assays of this library far below -100). The compounds are a random part of those screened. A dash means the value is not listed here; it may have been measured.

Toxoplasma: 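Assay of Toxoplasma gondii numbers, read through their beta-galactosidase reporter with a colour substrate. Concentration: 10 µM. Higher reads as fewer parasites (inferred from which compounds were picked for retests). Of about 67,000 compounds tested this way, about 260 (0.38%) reached 50% or more in at least one test.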
TcHisRS: 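Histidine-tRNA ligase, Trypanosoma cruzi CL Brener (UniProt Q4DA54). Enzyme assay of histidyl-tRNA synthetase; the read-out is not stated. Compounds at 30 µM. Direction is inferred from retests: higher values go with stronger inhibition. Size under these conditions: about 69,000 compounds, about 31 of them at 50% or above in at least one test.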
LiHisRS: 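Enzyme assay of histidyl-tRNA synthetase; the read-out is not stated. Target: Histidine-tRNA ligase, Leishmania infantum (UniProt A4I591). Compounds at 30 µM. The record gives no direction; compounds that gave an IC50 in retests scored well above the rest, so higher reads as stronger inhibition. The assay is labelled LdHisRS but filed under L. infantum. Size under these conditions: about 69,000 compounds, about 410 of them at 50% or above in at least one test.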
T. brucei: 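Whole-parasite assay of Trypanosoma brucei over 72 hours; the read-out is not stated. Tested at 30 µM. Direction is inferred from retests: higher values go with stronger inhibition. Values scatter widely below zero; nearly all retest evidence comes from the higher of the two concentrations used. Of about 64,000 compounds tested this way, about 940 (1.5%) reached 50% or more in at least one test.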

Compound	Toxoplasma	TcHisRS	LiHisRS	T. brucei
Cc1nc(CCN(C)C(=O)CN2CCCCCC2)no1	24.27	-3.03	4.444	-37.53
C1CC(c2noc(C3CC3)n2)N(Cc2nc(C3CC3)no2)C1 (centres unmarked)	23.72	5.523	9.649	-13.55
O=C(N1CCCO1)[C@@]12CCO[C@@H]1CCN(C1CCCCC1)C2	-	3.784	16.98	-
Cc1cccc(CN2CC3(CCN(C(=O)N(C)C)CC3)OCC2=O)n1	-	6.542	16.67	-
CCN(CC)C1CCN(c2ncnc3c2CCN(C(=O)C2CC2)C3)C1 (centres unmarked)	-4.508	8.333	10.85	-4.82
Cc1ccc(NC(=O)NCCCn2nc3ccccn3c2=O)cc1	6.451	2.035	9.649	-17.45
O=C(CC1CC1)N1CC[C@H]2[C@@H]1CCC(=O)N2c1cccnc1	-	2.762	9.023	-
COc1ccc2c(ccn2CCC(=O)NCc2ccc(C(=O)O)cc2)c1	2.156	-1.98	7.609	-3.713
CCN1CCN(c2ccc(C(=O)NCCn3ccnc3)cc2F)CC1	21.68	2.353	7.143	-78.93
[H][C@@]12C[C@H](C(=O)Nc3ccccc3)[C@@]([H])(CN(C(=O)NC)C1)O2	4.847	-	-	11.14
Cc1cc(Cc2ccccc2F)cc(C2CCCNC2)n1 (centres unmarked)	10.85	9.579	12.86	18.5
NC(=O)NC(CC(=O)NCCc1cccc(F)c1)c1ccccc1 (centres unmarked)	-14.76	8.642	10.75	-16.39
COCc1nc2n(n1)CCCC2Nc1nc(C2CC2)ns1 (centres unmarked)	-4.295	5.394	22.33	31.21
O=C1CC2(CCN(Cc3ccc(C(F)(F)F)nc3)CC2)CN1	-3.527	-0.5405	15.38	-5.288
CC(C)NC(=O)NC(C)c1nc(-c2ccccc2)cs1 (centres unmarked)	-2.5	11.67	9.91	5.079
O=C(c1cn(CCN2CCCCC2)nn1)N1CCCO1	-7.246	3.191	1.493	-12.81
O=C(C1CC(=O)N(c2n[nH]c3cc(Br)ccc23)C1)N1CCCC1 (centres unmarked)	-	8.911	19.57	17.71
CC(C)CN1C[C@H]2CCN(c3ncccn3)CC[C@H]2S1(=O)=O	-	0	17.92	-
[H][C@@]12COC[C@]1([H])[C@H](NC(=O)c1cccn1C)CN2S(C)(=O)=O	12.39	-	-	-6.78
Cn1cc(CN2CC[C@H]3CO[C@H](CNc4ncccn4)[C@H]3C2)cn1	-	4.865	16.98	-
[H][C@@]12CC(=O)N(Cc3csc(C)n3)[C@@]1([H])CCN2S(C)(=O)=O	-36.64	-	-	-13.69
CSCC(=O)N1CCOC(c2nc(C(C)C)n[nH]2)C1 (centres unmarked)	-	8.911	19.57	-18.6
O=C(O)C(F)(F)F.[H][C@@]12CN(Cc3ccc(C)o3)C[C@H](C(=O)N3CCCCO3)[C@]1([H])CCO2	4.31	-	-	4.477
Cn1cc(C2SCC(=O)Nc3c2c(=O)[nH]n3C2CCOCC2)cn1 (centres unmarked)	9.083	-1.754	23.68	-19.75
CCN(Cc1ccc(OC)c(F)c1)C(=O)c1ccc(C)[nH]c1=O	-13.41	0.3802	24.8	-9.595
c1cc(COC[C@]23COC[C@H]2CN(Cc2ccncc2)C3)ccn1	-	9.244	4.587	-
Cc1c(CN2CCCC(C(=O)c3ccccc3)C2)cc(C#N)n1C (centres unmarked)	7.81	2.128	9.375	-13.05
Cc1nc(CN2CCn3cc(CNC(=O)C4CCC4)nc3C2)cs1.O=C(O)C(F)(F)F	3.312	-	-	-14.97
COCCN1C(=O)[C@]2(CC[C@@H]3CN(S(=O)(=O)CC(C)C)C[C@@H]32)N=C1C	-	1.97	2.941	-
O=C(O)C(F)(F)F.O=C(O)C(F)(F)F.O=C(O)C(F)(F)F.[H][C@@]12CN(Cc3ccncc3)C[C@]1([H])[C@@H](OC)CCN2Cc1cccs1	4.155	-	-	13.27
[H][C@]12CCC[C@@]1(COCc1ccccn1)CN(Cc1ccccn1)C2	10.65	-	-	-27.79
COc1ccc(Br)cc1SCCS(C)(=O)=O	2.269	7.071	20.21	-18.97
O=C(NCCn1cccn1)c1nnc2ccccc2n1	17.77	-2.632	7.08	-
O=C1O[C@@H]2CN(Cc3ccsc3)C[C@@H]2N1Cc1ccccn1	-	8.152	-2.667	-
O=C(c1nc(=O)[nH][nH]1)N1CCC2(CCCCC2)C1	-	3.448	-1.613	-16.43
CC(C)(C)c1ccc(S(=O)(=O)CCNC(=O)c2cnccn2)cc1	-6.21	-1.064	22.39	-14.14
O=C(NCc1ccccc1)N1C[C@H]2C[C@H](C(=O)N3CCCC3)[C@@H](C1)O2	-	9.195	2.632	-
Cn1cc(C(=O)NCc2cn3c(n2)CN(Cc2ccccn2)CC3)cn1.O=C(O)C(F)(F)F.O=C(O)C(F)(F)F	-11.97	-	-	16.11
N#Cc1ccc(CNCCn2cccn2)c(F)c1	13.77	2.041	-1.835	-
Cn1cncc1C(=O)N1CCOC2(COCCN(CC3CC3)C2)C1.O=C(O)C(F)(F)F (centres unmarked)	-9.973	-	-	2.846
[H][C@@]12CN(C(=O)CC(F)(F)F)C[C@]1([H])C(=O)N(Cc1csc(C)n1)C2	-14.95	-	-	-10.26
O=C([C@H]1CN(Cc2cccnc2)C[C@H]2OCC[C@@H]12)N1CCCO1	-	4.478	11.11	-
CCN(C)S(=O)(=O)NCC(O)c1cc2ccccc2s1 (centres unmarked)	-2.996	3.704	20.59	17.09
O=C(O)C(F)(F)F.[H][C@@]12CN(Cc3ccoc3)CCC[C@]1(C(=O)O)CN(c1ncccn1)C2	5.788	-	-	0.4573
O=C(NCCCNc1ccc(C(F)(F)F)cn1)c1ccc(F)cc1Br	3.931	6.122	11.5	-
COc1cccc(F)c1CN1CCC(c2nc(C)cc(C)n2)C1 (centres unmarked)	34.65	0	4.196	-3.299
c1cncc(OC[C@]23COC[C@H]2CN(Cc2nccs2)C3)c1	-	6.748	14.81	-
COCCCNC(=O)Cc1nc(-c2ccncc2)n[nH]1	-6.995	0.4975	8.434	-39.24
Cc1ccncc1NS(=O)(=O)c1ccc(Cl)s1	7.6	11.34	26.44	-30.81
CC(Cn1cccn1)NC(=O)NCCCN1CCc2ccccc21 (centres unmarked)	-2.051	4.712	15.52	-47.79